# In patent US12364771B2 (ProLynx LLC, priority 2019, dated 2025):
# Experiment: general procedure: Fmoc solid-phase peptide synthesis; Rink amide resin
# Details: whole synthesis, 280 nm
substance,measurement,value
"N^α-{4-Azido-3,3-dimethyl-1-[(N,N-dimethyl)aminosulfonyl]-2-butyloxycarbonyl}-[Gln^28]exenatide",final HPLC purity,90.0%
